These are yes or no findings as the source states them, for the method shown. In cells and extracts the contact can be indirect. Some results given as binding are weak or reduced against the parent protein; the word gives no strength.

The chains behind the UniProt entries cited, without tags or fusion partners.
UniProt O94874: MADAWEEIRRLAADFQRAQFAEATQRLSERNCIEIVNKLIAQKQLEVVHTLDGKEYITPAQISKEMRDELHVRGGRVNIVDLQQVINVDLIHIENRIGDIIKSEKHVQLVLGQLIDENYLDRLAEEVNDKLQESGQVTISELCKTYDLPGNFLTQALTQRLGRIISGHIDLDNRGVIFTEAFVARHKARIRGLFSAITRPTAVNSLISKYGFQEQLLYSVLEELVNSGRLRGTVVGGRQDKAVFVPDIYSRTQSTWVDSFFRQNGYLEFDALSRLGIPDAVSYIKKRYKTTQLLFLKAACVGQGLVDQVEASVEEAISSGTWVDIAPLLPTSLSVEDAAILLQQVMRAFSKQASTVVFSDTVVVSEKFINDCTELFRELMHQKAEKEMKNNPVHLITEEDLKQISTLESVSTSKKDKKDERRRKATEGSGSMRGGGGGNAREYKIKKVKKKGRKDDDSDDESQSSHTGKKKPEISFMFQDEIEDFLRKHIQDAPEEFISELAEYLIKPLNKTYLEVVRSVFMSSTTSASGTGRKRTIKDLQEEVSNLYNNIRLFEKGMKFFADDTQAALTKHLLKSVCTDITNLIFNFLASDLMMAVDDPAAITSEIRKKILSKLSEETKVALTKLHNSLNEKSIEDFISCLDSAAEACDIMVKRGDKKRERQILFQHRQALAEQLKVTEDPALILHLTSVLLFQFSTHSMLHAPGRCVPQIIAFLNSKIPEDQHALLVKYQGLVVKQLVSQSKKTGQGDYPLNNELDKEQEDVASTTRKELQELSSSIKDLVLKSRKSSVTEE
UniProt P49736: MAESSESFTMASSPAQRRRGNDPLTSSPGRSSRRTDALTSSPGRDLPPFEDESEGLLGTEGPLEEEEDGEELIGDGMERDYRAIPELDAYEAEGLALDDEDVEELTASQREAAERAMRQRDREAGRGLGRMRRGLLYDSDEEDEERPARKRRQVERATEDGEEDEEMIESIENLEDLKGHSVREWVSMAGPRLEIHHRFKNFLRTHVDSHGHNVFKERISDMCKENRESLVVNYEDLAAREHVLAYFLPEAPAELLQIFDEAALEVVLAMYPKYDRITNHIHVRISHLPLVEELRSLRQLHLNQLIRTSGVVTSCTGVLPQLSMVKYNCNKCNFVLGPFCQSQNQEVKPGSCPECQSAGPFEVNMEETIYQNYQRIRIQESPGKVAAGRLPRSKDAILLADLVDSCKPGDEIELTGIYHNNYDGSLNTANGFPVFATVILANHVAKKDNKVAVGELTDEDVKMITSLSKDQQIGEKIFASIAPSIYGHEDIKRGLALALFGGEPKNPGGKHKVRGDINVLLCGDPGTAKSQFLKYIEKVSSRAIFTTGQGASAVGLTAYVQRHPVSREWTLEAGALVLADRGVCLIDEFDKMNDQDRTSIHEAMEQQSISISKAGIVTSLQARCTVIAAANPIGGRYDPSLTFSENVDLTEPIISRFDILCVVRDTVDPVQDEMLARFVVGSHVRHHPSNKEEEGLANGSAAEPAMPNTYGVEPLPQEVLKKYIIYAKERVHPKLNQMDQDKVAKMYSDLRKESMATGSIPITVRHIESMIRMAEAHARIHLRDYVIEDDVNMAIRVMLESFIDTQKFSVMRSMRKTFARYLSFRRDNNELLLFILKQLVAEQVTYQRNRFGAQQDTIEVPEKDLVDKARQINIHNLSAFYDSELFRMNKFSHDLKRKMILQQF

The assay concerns the target UFL1 (endogenous, HEK293T) (human (endogenous in HEK293T)) (UniProt O94874). Nature of the assay: co-IP; endogenous; HEK293T cell lysates precipitated with an anti-UFL1 antibody or control IgG, western blot. A general note: A western blot detects proteins with antibodies after separation by electrophoresis.

Regarding “MCM2 (endogenous, HEK293T) (from UniProt P49736 1-904)”, the binding result was “binds”.
